# Measurements from patent publication US20250228875A1, “METHODS OF TREATING, AMELIORATING AND/OR PREVENTING FIBRODYSPLASIA OSSIFICANS PROGRESSIVA AND HETEROTOPIC OSSIFICATION, AND KITS FOR THE SAME” (The Trustees of the University of Pennsylvania, priority 2022, published 2025).
# At least one compound was matched to its structure with a doubt left.
# Test system: FOP model mice
# Experiment: Minocycline time of administration relative to lesional activation, effect on HO (FIG. 6I)
# Assay type: in vivo
# Details: administered before or at the time of lesional activation, mouse model not stated
smiles,measurement,value
CN(C)c1ccc(O)c2c1C[C@H]1C[C@H]3[C@H](N(C)C)C(O)=C(C(N)=O)C(=O)[C@@]3(O)C(O)=C1C2=O [minocycline],protection against HO by time of administration,protects against HO
